Target: T1, human FSH receptor (FSHR) spontaneously expressed on human OVCAR-3 ovarian cancer cells (human, UniProt P23945 18-695)
T1 sequence (looked up): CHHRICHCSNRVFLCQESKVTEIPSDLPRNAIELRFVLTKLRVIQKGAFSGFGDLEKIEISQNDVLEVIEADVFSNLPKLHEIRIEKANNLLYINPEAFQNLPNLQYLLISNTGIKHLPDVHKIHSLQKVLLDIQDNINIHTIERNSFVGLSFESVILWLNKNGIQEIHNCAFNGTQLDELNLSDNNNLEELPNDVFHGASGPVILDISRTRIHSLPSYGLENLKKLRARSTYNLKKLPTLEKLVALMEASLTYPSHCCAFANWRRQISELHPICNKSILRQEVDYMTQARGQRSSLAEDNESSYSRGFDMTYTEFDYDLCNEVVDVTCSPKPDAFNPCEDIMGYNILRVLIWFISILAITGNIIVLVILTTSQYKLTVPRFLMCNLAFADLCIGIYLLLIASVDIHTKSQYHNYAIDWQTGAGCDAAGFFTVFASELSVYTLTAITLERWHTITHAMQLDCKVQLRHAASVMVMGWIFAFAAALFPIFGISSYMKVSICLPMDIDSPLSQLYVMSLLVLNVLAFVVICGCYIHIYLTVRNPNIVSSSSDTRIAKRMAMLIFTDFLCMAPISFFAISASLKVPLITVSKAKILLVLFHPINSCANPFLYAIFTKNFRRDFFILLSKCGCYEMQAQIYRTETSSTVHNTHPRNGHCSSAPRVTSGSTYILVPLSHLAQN
Assay: cell-based or functional assay

B1: human FSH chimeric endocrine receptor (hFSHCER), construct of FIG. 5 / Table 1, expressed on transduced human T cells or TALL-103/2 cells (other)
chain: NSCELTNITIAIEKEECRFCISINTTWCAGYCYTRDLVYKDPARPKIQKTCTFKELVYETVRVPGCAHHADSLYTYPVATQCHCGKCDSDSTDCTVRGLGPSYCSFGEMKEGGGSGGGSGGGSGGGAPDVQETGFHHVAQAALKLLSSSNPPTKASQSARITDCPECTLQENPFFSQPGAPILQCMGCCFSRAYPTPLRSKKTMLVQKNVTSESTCCVAKSYNRVTVMGGFKVENHTACHCSTCYYHKSTTTPAPRPPTPAPTIASQPLSLRPEACRPAAGGAVHTRGLDFACDIYIWAPLAGTCGVLLLSLVITLYCKRGRKKLLYIFKQPFMRPVQTTQEEDGCSCRFPEEEEGGCELRVKFSRSADAPAYQQGQNQLYNELNLGRREEYDVLDKRRGRDPEMGGKPRRKNPQEGLYNELQKDKMAEAYSEIGMKGERRRGKGHDGLYQGLSTATKDTYDALHMQALPPR
B1 was tested, and the “elimination of OVCAR3 tumor cells by FSH CER-transduced TALL-103/2 cells (luciferase cytotoxicity assay, 4 h) at effector:target ratios as low as 1:4” value was ~60%.
